Results are given in words; binding and its absence hold for the method and conditions named. Binding seen in cells or lysates may run through a third protein. Some entries that bind do so weakly or less than the wild type. For some assays here: Tags and fused reporters may be left off the sequences shown.

Amino acid sequences for entries named in this document (tags omitted).
UniProt P54578: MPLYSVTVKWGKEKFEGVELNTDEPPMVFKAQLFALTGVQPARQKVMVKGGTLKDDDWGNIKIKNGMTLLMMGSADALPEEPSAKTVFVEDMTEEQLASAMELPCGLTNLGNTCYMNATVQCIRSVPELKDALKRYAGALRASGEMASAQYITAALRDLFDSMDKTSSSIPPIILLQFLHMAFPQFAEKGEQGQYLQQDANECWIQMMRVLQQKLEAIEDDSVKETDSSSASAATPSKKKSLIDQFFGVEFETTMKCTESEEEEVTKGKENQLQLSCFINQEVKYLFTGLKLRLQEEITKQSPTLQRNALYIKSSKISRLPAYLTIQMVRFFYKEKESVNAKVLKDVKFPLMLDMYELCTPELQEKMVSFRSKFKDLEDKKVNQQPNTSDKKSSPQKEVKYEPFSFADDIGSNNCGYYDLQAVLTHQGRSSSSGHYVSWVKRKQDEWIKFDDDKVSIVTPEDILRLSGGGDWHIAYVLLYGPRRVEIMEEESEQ

Assay [1] deals with exogenous USP14 (cotransfected with GFP-CIB1) (human) (UniProt P54578). The assay is described as follows: co-IP; HEK293T and PLC-R cells cotransfected with exogenous CIB1 and USP14; reciprocal co-IP with anti-Flag antibodies (Fig. 3i; Fig. S3e); Western blot. (In general: In western blotting, separated proteins are transferred to a membrane and probed.)
In assay [2] the target is ubiquitin-specific protease 14 (USP14), endogenous (human (endogenous in PLC-R)) (UniProt P54578). In words: co-IP; endogenous proteins (Fig. S3g); cell line and precipitating antibody not stated.

B1: GFP-CIB1 (protein, UniProt Q99828 1-191)
chain: MGGSGSRLSKELLAEYQDLTFLTKQEILLAHRRFCELLPQEQRSVESSLRAQVPFEQILSLPELKANPFKERICRVFSTSPAKDSLSFEDFLDLLSVFSDTATPDIKSHYAFRIFDFDDDGTLNREDLSRLVNCLTGEGEDTRLSASEMKQLIDNILEESDIDRDGTINLSEFQHVISRSPDFASSFKIVL
Turning to B1, the binding entry in assay [1] is on record as “binds”.

B2: calcium- and integrin-binding protein 1 (CIB1), endogenous (protein, UniProt Q99828 1-191)
chain: B1 chain
As for B2, in assay [2], the binding entry is “binds”.

These data come from paper PMC11234209.
